# Data taken from the supplement of paper PMC8866396.
# ± gives the standard deviation of the averaged measurements. The list shows a part of the results. Single values are uncertain here, since repeats match poorly.
# System: IL-6-GFP PC-9GR
# Test: IL-6-GFP fluorescence relative to DMSO control (fraction of control); higher = more IL-6-GFP expression
# Conditions: compound concentration: 10 uM; treatment time: 48 h
# Description: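 IL-6-GFP-overexpressing PC-9 and PC-9GR EGFR-mutant lung cancer cells (3000 cells/well, 96-well) were treated for 48 h with each compound of the Selleck L2000 library at 10 uM. IL-6-GFP fluorescence was read on a high-content screening system, and viability by CCK-8 absorbance on a parallel plate set. Each value was normalised as compound well / DMSO control well; two independent replicates.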
row,SMILES,IL-6-GFP fluorescence
1,CCC(C)C(=O)OC1CC(O)C=C2C=CC(C)C(CCC(O)CC(O)CC(=O)[O-])C21.[Na+] (stereo not given) [Pravastatin sodium],0.927 ± 0.013
2,O=c1oc2cc(O)ccc2s1 [Tioxolone],1.24 ± 0.095
3,COc1cc2ncnc(Nc3ccc(F)c(Cl)c3)c2cc1OCCCN1CCOCC1.Cl [Gefitinib hydrochloride],0.766 ± 0.051
4,CCCCOc1ccc(C(=O)CCN2CCCCC2)cc1.Cl [Dyclonine HCl],0.827 ± 0.21
5,C#Cc1cccc(Nc2ncnc3cc4c(cc23)OCCOCCOCCO4)c1 [Icotinib],1.17 ± 0.48
6,O=C(Nc1cnn2ccc(N3CCCC3c3cc(F)ccc3F)nc12)N1CCC(O)C1.O=S(=O)(O)O (stereo not given) [Larotrectinib (LOXO-101) sulfate],1.06 ± 0.28
7,CCC(=O)OCC(=O)C1(OC(=O)CC)C(C)CC2C3CCC4=CC(=O)C=CC4(C)C3(Cl)C(O)CC21C (stereo not given) [Beclomethasone dipropionate],0.998 ± 0.013
8,C/C=C(/C)C(=O)OC1C(OC(C)=O)C2(CO)C(O)CC3(C)C(=CCC4C5(C)CCC(OC6OC(C(=O)O)C(OC7OC(CO)C(O)C(O)C7O)C(O)C6OC6OC(CO)C(O)C(O)C6O)C(C)(CO)C5CCC43C)C2CC1(C)C (stereo not given) [Escin],0.777 ± 0.33
9,CCc1cccc2c3c([nH]c12)C(CC)(CC(=O)O)OCC3 (stereo not given) [Etodolac],1.12 ± 0.028
10,CC(C)C1C(=O)NC(CCCNC(=N)N)C(=O)NCC(=O)NC(CC(=O)O)C(=O)NC(Cc2ccccc2)C(=O)N1C.O=C(O)C(F)(F)F (stereo not given),0.833 ± 0.17
11,C=C1c2cccc(O)c2C(=O)C2=C(O)C3(O)C(=O)C(C(N)=O)=C(O)C(N(C)C)C3C(O)C12.Cl (stereo not given) [Methacycline HCl],0.933 ± 0.011
12,Cc1c(-c2ccc(-c3ccccc3F)cc2)nc2ccc(F)cc2c1C(=O)O [Brequinar],1.22 ± 0.45
13,COC(c1ccccc1)(c1ccccc1)C(Oc1nc(C)cc(C)n1)C(=O)O (stereo not given) [Ambrisentan],0.853 ± 0.08
14,COc1c2occc2c(OC)c2c(=O)cc(C)oc12 [Khellin],0.761 ± 0.098
15,Cn1c(=O)cc(N2CCCC(N)C2)n(Cc2cc(F)ccc2C#N)c1=O.O=C(O)CCC(=O)O (stereo not given) [Trelagliptin succinate],1.04 ± 0.025
16,CCC(=O)OC1(C(=O)SCF)C(C)CC2C3CC(F)C4=CC(=O)C=CC4(C)C3(F)C(O)CC21C (stereo not given) [Fluticasone propionate],0.792 ± 0.39
17,Cc1nc(-c2ccc(OCC(C)C)c(C#N)c2)sc1C(=O)O [Febuxostat],0.59 ± 0.31
18,CN1CCC(NC(=O)Nc2ccc(C#N)cc2)CC1c1nc2ccccc2[nH]1 (stereo not given),1.05 ± 0.062
19,CNC(=O)C(NC(=O)C(CC(C)C)C(O)C(=O)NO)C(C)(C)C (stereo not given) [Marimastat (BB-2516)],0.853 ± 0.18
20,"O=c1[nH]cc(F)c(=O)[nH]1 [Fluorouracil (5-Fluoracil, 5-FU)]",1 ± 0.094

# Three entries picked at random from the list so far:
row,SMILES,IL-6-GFP fluorescence
7,CCC(=O)OCC(=O)C1(OC(=O)CC)C(C)CC2C3CCC4=CC(=O)C=CC4(C)C3(Cl)C(O)CC21C (stereo not given) [Beclomethasone dipropionate],0.998 ± 0.013
8,C/C=C(/C)C(=O)OC1C(OC(C)=O)C2(CO)C(O)CC3(C)C(=CCC4C5(C)CCC(OC6OC(C(=O)O)C(OC7OC(CO)C(O)C(O)C7O)C(O)C6OC6OC(CO)C(O)C(O)C6O)C(C)(CO)C5CCC43C)C2CC1(C)C (stereo not given) [Escin],0.777 ± 0.33
10,CC(C)C1C(=O)NC(CCCNC(=N)N)C(=O)NCC(=O)NC(CC(=O)O)C(=O)NC(Cc2ccccc2)C(=O)N1C.O=C(O)C(F)(F)F (stereo not given),0.833 ± 0.17

# (list continues)

row,SMILES,IL-6-GFP fluorescence
1,CC(NCc1ccc(OCc2cccc(F)c2)cc1)C(N)=O.CS(=O)(=O)O (stereo not given) [Safinamide Mesylate],0.9 ± 0.069
2,"O=C(CCCCCCC(=O)Nc1ccccc1)NO [Vorinostat (SAHA, MK0683)]",1.2 ± 0.033
3,Cc1cc2c(C(N)=O)cccc2n1-c1nc2c(c(NCc3ccccc3)n1)COCC2,1.12 ± 0.33
4,CN1C2=CC(=O)/C(=N\NC(N)=O)C=C2CC1S(=O)(=O)[O-].[Na+] (stereo not given) [Carbazochrome sodium sulfonate (AC-17)],0.569 ± 0.55
5,CC(C)Cc1ccc(C(C)C(=O)OCc2ccccn2)cc1 (stereo not given) [Ibuprofen piconol],0.834 ± 0.099
6,COc1cccc2c1C(=O)c1c(O)c3c(c(O)c1C2=O)CC(O)(C(=O)CO)CC3OC1CC(N)C(OC2CCCCO2)C(C)O1 (stereo not given) [Pirarubicin],0.986 ± 0.15
7,CC(C(=O)O)c1ccc2c(c1)[nH]c1ccc(Cl)cc12 (stereo not given) [Carprofen],0.507 ± 0.45
8,Nc1n[n+]([O-])c2ccccc2[n+]1[O-] [Tirapazamine],1.16 ± 0.32
9,CC(=O)c1c(C)c2cnc(Nc3ccc(N4CCNCC4)cn3)nc2n(C2CCCC2)c1=O.Cl,0.791 ± 0.23
10,O=C(O)c1ccccc1Nc1cccc(C(F)(F)F)c1 [Flufenamic acid],0.534 ± 0.37
11,CC(Oc1cc(-c2cnn(C3CCNCC3)c2)cnc1N)c1c(Cl)ccc(F)c1Cl (stereo not given),1.23 ± 0.17
12,Nc1ccc(F)cc1NC(=O)c1ccc(CNC(=O)/C=C/c2cccnc2)cc1 [Tucidinostat (Chidamide)],0.973 ± 0.14
13,Nc1nc(F)nc2c1ncn2C1OC(COP(=O)(O)O)C(O)C1O (stereo not given) [Fludarabine Phosphate],1.08 ± 0.099
14,CCOC(=O)c1c(N)sc2c1CCN(Cc1ccccc1)C2.Cl [Tinoridine hydrochloride],1.37 ± 0.015
15,CCC1(O)C(=O)OCc2c1cc1n(c2=O)Cc2cc3cc(O)ccc3nc2-1 [(S)-10-Hydroxycamptothecin],1.24 ± 0.79
16,CC(Oc1cc(-c2cnn(C3CCNCC3)c2)cnc1N)c1c(Cl)ccc(F)c1Cl [(S)-crizotinib],1.02 ± 0.031
17,CC1CC2C3CCC4=CC(=O)C=CC4(C)C3(F)C(O)CC2(C)C1(O)C(=O)COP(=O)([O-])[O-].[Na+].[Na+] (stereo not given) [Dexamethasone Sodium Phosphate],0.81 ± 0.098
18,"CCCS(=O)(=O)Nc1ccc(F)c(C(=O)c2c[nH]c3ncc(-c4ccc(Cl)cc4)cc23)c1F [Vemurafenib (PLX4032, RG7204)]",0.931 ± 0.06
19,Cc1cccc(N(C)C(=S)Oc2ccc3ccccc3c2)c1 [Tolnaftate],0.66 ± 0.27
20,CCCC(=O)OC1(C(=O)CO)CCC2C3CCC4=CC(=O)CCC4(C)C3C(O)CC21C (stereo not given) [Hydrocortisone butyrate],0.859 ± 0.057
